From publication doi:10.1101/2023.10.11.561954
No constants are given. Whether binding was seen depends on the method and setting. In cells and extracts the contact can be indirect. Some results given as binding are weak or reduced against the parent protein; the word gives no strength.

Sequences of proteins named here, by UniProt entry; tags and fusion partners are left off.
UniProt Q04695: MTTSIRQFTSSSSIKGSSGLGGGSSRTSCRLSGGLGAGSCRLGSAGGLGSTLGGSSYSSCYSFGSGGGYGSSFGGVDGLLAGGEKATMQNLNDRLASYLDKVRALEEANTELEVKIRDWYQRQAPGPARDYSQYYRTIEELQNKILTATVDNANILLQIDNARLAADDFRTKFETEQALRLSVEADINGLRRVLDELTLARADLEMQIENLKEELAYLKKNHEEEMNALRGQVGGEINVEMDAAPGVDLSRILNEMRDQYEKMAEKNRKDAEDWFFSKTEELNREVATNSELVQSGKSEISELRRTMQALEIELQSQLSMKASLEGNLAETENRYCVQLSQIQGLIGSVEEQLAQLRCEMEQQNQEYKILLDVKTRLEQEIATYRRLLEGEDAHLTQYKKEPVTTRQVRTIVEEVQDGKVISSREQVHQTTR

Target: Keratin 17 (human (endogenous in A431)) (UniProt Q04695)
Experiment: proximity ligation

protein kinase C alpha (from UniProt P17252 1-672) (enzyme)
binding: binds
